# Taken from: PubChem BioAssay AID1159584 (Peter MacCallum Cancer Centre, 2016)
# Assay: 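Knock-downs that harm CDH1-null cells more than parental MCF10A cells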 (primary screen)
# System: human MCF10A breast epithelial cells, parental and CDH1-null
# Reagents: siRNA against human genes
# Measured: 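Cell viability by CellTiter-Glo ATP luminescence, each line scaled to the mean of mock wells across plates, then CDH1-null over parental ratio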
# Reading the numbers: CDH1-null / parental viability ratio: higher = CDH1-null cells survive relatively better than parental; CDH1-null viability vs mock: higher = more viable CDH1-null cells; parental viability vs mock: higher = more viable parental cells
# Here is an unselected part of about 18,000 deposited reagents. Not stated in the record: the amount of reagent, the time to read-out.
The opening 3 records, to show the layout:
Gene,CDH1-null / parental viability ratio,CDH1-null viability vs mock (fraction of mock),parental viability vs mock (fraction of mock)
SH3D19 (GeneID 152503),1.12,0.96,0.86
IRAK1 (GeneID 3654),1.03,0.93,0.9
RIDA (GeneID 10247),1.05,1.21,1.15

Main list, from the start:
Gene,CDH1-null / parental viability ratio,CDH1-null viability vs mock (fraction of mock),parental viability vs mock (fraction of mock)
SH3D19 (GeneID 152503),1.12,0.96,0.86
IRAK1 (GeneID 3654),1.03,0.93,0.9
RIDA (GeneID 10247),1.05,1.21,1.15
ZSCAN29 (GeneID 146050),1.11,0.73,0.66
LAX1 (GeneID 54900),1.11,0.61,0.55
OR12D2 (GeneID 26529),1.01,0.81,0.8
INTS2 (GeneID 57508),1.22,0.78,0.64
CPEB4 (GeneID 80315),1.14,0.97,0.85
RASSF8 (GeneID 11228),1.44,0.36,0.25
ECRG4 (GeneID 84417),0.8,0.82,1.02
MAP1S (GeneID 55201),0.92,0.68,0.74
PGGT1B (GeneID 5229),1.06,0.82,0.77
KLHL27 (GeneID 3652),1.05,0.8,0.76
HERC6 (GeneID 55008),1.48,0.77,0.52
ZNF326 (GeneID 284695),0.82,0.66,0.8
ZNF7 (GeneID 7553),1.05,0.96,0.91
EVI2A (GeneID 2123),1.86,1.06,0.57
PUM3 (GeneID 9933),0.86,0.64,0.74
WFDC11 (GeneID 259239),0.76,0.58,0.76
CDC50A (GeneID 55754),1.01,1.01,1
POLL (GeneID 27343),0.94,0.88,0.94
SLC25A40 (GeneID 55972),0.93,0.56,0.6
ACO2 (GeneID 50),1.12,0.47,0.42
ADCY10 (GeneID 55811),1,0.96,0.96
KIAA1958 (GeneID 158405),1.75,0.91,0.52
DYNC1LI1 (GeneID 51143),0.89,0.78,0.88
DPH7 (GeneID 92715),0.84,0.76,0.9
UCP1 (GeneID 7350),0.93,1.11,1.2
CD1B (GeneID 910),0.87,0.46,0.53
HPGDS (GeneID 27306),1.15,0.97,0.84
RUSC1 (GeneID 23623),1.06,0.92,0.87
SMIM12 (GeneID 113444),0.98,0.92,0.94
MUSK (GeneID 4593),0.92,0.7,0.76
WHRN (GeneID 25861),1.3,1.25,0.96
PM20D2 (GeneID 135293),1.11,0.78,0.7
GDF15 (GeneID 9518),1.2,0.65,0.54
TMEM258 (GeneID 746),1.53,0.55,0.36
MTUS2 (GeneID 23281),1.24,0.42,0.34
TPPP3 (GeneID 51673),0.84,0.46,0.55
CDH5 (GeneID 1003),0.66,0.74,1.12
SPSB2 (GeneID 84727),1.21,0.94,0.78
RARG (GeneID 5916),1.1,0.74,0.67
TBC1D9 (GeneID 23158),0.75,0.47,0.63
HMCN1 (GeneID 83872),0.96,0.5,0.52
MED13 (GeneID 9969),1.05,0.82,0.78
NQO1 (GeneID 1728),1.05,1.05,1
